According to patent US7868135B2 (priority 2003, dated 2011):

Test: general procedure: peptide synthesis; 2-chlorotrityl amine resin; Wang Resin (for building blocks); succinimide activated esters (hydroxysuccinimide/dicyclohexylcarbodiimide), sodi
Conditions: coupling step
With C15-Amphomycin-9-Dap-(β-N-(β-Ala)) the “final purity (method not given)” value was 85% pure and the step yield was 7% yield. In the case of C15-Amphomycin-9-Gly-(D-Leu), the “final purity (method not given)” value is reported as 83% pure and the step yield is reported as 19% yield. With C15-Amphomycin-9-Gly-Ahx the “final purity (method not given)” value was 98% pure and the step yield was 15% yield. With C15-Amphomycin-9-Gly-Gly-Lys the “final purity (method not given)” value was 88% pure and the step yield was 54% yield. For C15-Amphomycin-9-Gly-Lys-Gly, the “final purity (method not given)” value was 77% pure and the step yield was 68% yield. With C15-Amphomycin-9-Gly-Lys-Lys the “final purity (method not given)” value was 74% pure and the step yield was 52% yield. With C15-Amphomycin-9-Lys-Gly the “final purity (method not given)” value was 91% pure and the step yield was 63% yield. With C15-Amphomycin-9-Lys-Lys the “final purity (method not given)” value was 72% pure and the step yield was 23% yield. In the case of C15-Amphomycin-9-Lys-Lys-Lys, the “final purity (method not given)” value is reported as 91% pure and the step yield is reported as 56% yield. In the case of C15-Amphomycin-9-Pro-Lys, the “final purity (method not given)” value is reported as 88.9% pure and the step yield is reported as 22.6% yield. With C15-Amphomycin-9-Sar-Ahx the “final purity (method not given)” value was 98% pure and the step yield was 12% yield. For C15-Amphomycin-9-Sar-Lys, the “final purity (method not given)” value was 84% pure and the step yield was 9% yield.

Same assay, conditions: late stage modification step
In the case of C12-Amphomycin-9-Gly-Lys, the “final purity (method not given)” value is reported as 80% pure and the step yield is reported as 10% yield. With C13-Amphomycin-9-Gly-Lys the “final purity (method not given)” value was 93% pure and the step yield was 46% yield. With C15-Amphomycin-9-(N-Benzoyl-Tyr-PABA) the “final purity (method not given)” value was 91% pure and the step yield was 11% yield. In the case of C15-Amphomycin-9-Ahx-Gly, the “final purity (method not given)” value is reported as 99% pure and the step yield is reported as 30% yield. For C15-Amphomycin-9-Gly-(D-Ala), the “final purity (method not given)” value was 75% pure and the step yield was 37% yield. In the case of C15-Amphomycin-9-Gly-(D-Lys), the “final purity (method not given)” value is reported as 82% pure and the step yield is reported as 58% yield. With C15-Amphomycin-9-Gly-Ac the “final purity (method not given)” value was 89% pure and the step yield was 11% yield. In the case of C15-Amphomycin-9-Gly-Dap, the “final purity (method not given)” value is reported as 73% pure and the step yield is reported as 36% yield. In the case of C15-Amphomycin-9-Gly-GABA, the “final purity (method not given)” value is reported as 74% pure and the step yield is reported as 31% yield. With C15-Amphomycin-9-Gly-Gly the “final purity (method not given)” value was 98% pure and the step yield was 28% yield. For C15-Amphomycin-9-Gly-Gly-Gly, the “final purity (method not given)” value was 89% pure and the step yield was 38% yield. In the case of C15-Amphomycin-9-Gly-Leu, the “final purity (method not given)” value is reported as 98% pure and the step yield is reported as 26% yield. In the case of C15-Amphomycin-9-Gly-Lys, the “final purity (method not given)” value is reported as 80% pure and the step yield is reported as 41% yield. In the case of C15-Amphomycin-9-Gly-Orn, the “final purity (method not given)” value is reported as 68% pure and the step yield is reported as 66% yield. For C15-Amphomycin-9-Gly-Phe, the “final purity (method not given)” value was 77% pure and the step yield was 26% yield. For C15-Amphomycin-9-Gly-Suc, the “final purity (method not given)” value was 93% pure and the step yield was 23% yield. With C15-Amphomycin-9-Gly-Val the “final purity (method not given)” value was 96% pure and the step yield was 30% yield. With C15-Amphomycin-9-Pro-Gly the “final purity (method not given)” value was 84% pure and the step yield was 40% yield. For C15-Amphomycin-9-Sar-(N,N-Dimethyl-Gly), the “final purity (method not given)” value was 99% pure and the step yield was 32% yield. With C15-Amphomycin-9-Sar-Dap the “final purity (method not given)” value was 83% pure and the step yield was 16% yield. For C15-Amphomycin-9-Sar-Orn, the “final purity (method not given)” value was 89% pure and the step yield was 16% yield. In the case of C16-Amphomycin-9-Gly-Lys, the “final purity (method not given)” value is reported as 79% pure and the step yield is reported as 13% yield. With C17-Amphomycin-Gly-Lys the “final purity (method not given)” value was 82% pure and the step yield was 15% yield. With CH3—(CH2)9—SO2-Gly-Amphomycin-9-Gly the “final purity (method not given)” value was 78% pure and the step yield was 18% yield. With CH3—(CH2)9—SO2-Gly-Amphomycin-9-Lys the “final purity (method not given)” value was 83% pure and the step yield was 5.7% yield. In the case of “CH3—(CH2)11—O-p-Ph-C(═O)-Gly-Amphomycin-9-Gly”, the “final purity (method not given)” value is reported as 88% pure and the step yield is reported as 19% yield. For “CH3—(CH2)13—NH—C(═O)-Amphomycin-9-Gly-Lys”, the “purity (crude or final not stated)” value was 80% pure and the step yield was 28% yield.

Same assay, conditions: lipidation step
For 4′-Octyl-Biphenyl-4-Carboxyl-Amphomycin, the “final purity (method not given)” value was 67.3% pure and the step yield was 2.4% yield. With “(CH3—(CH2)7)(CH3—(CH2)5)CH—C(═O)-Gly-Amphomycin” the “purity (crude or final not stated)” value was 84% pure. In the case of C6-Gly-Amphomycin, the “purity (crude or final not stated)” value is reported as 83.9% pure and the step yield is reported as 31.7% yield. For C8-Gly-Amphomycin, the “purity (crude or final not stated)” value was 82% pure and the step yield was 16.1% yield. For C8-Sar-Amphomycin, the “purity (crude or final not stated)” value was 98.2% pure and the step yield was 3.1% yield. With C10-Gly-Amphomycin the “purity (crude or final not stated)” value was 91.7% pure and the step yield was 37.8% yield. For C10-Sar-Amphomycin, the “purity (crude or final not stated)” value was 99.1% pure and the step yield was 42.3% yield. With C11-(Asp-(OMe))-Amphomycin the “purity (crude or final not stated)” value was 92% pure. In the case of C11-(Asp-(OtBu))-Amphomycin, the “purity (crude or final not stated)” value is reported as 85% pure. In the case of C12-Gly-Amphomycin, the “purity (crude or final not stated)” value is reported as 90% pure. In the case of C12-PABA-Gly-Amphomycin, the “purity (crude or final not stated)” value is reported as 82% pure. In the case of C13-(Asp-(OMe))-Amphomycin, the “purity (crude or final not stated)” value is reported as 93% pure and the step yield is reported as 12% yield. With C13-(Asp-(OtBu))-Amphomycin the “purity (crude or final not stated)” value was 93% pure. For C14-Gly-Amphomycin, the “final purity (method not given)” value was 92% pure and the step yield was 24% yield. For C14-PABA-Gly-Amphomycin-9-Gly, the “purity (crude or final not stated)” value was 86% pure. With C14-Sar-Amphomycin the “purity (crude or final not stated)” value was 80.9% pure and the step yield was 2.4% yield. With C15-(Asp-(OME))-Amphomycin the “purity (crude or final not stated)” value was 91% pure. In the case of C15-(Asp-(Ome))-Amphomycin, the “purity (crude or final not stated)” value is reported as 93% pure and the step yield is reported as 45% yield. In the case of C15-Amphomycin-9-Gly-C6, the “final purity (method not given)” value is reported as 98% pure and the step yield is reported as 9% yield. For C15-Phg-Amphomycin, the “purity (crude or final not stated)” value was 75% pure. For C15-[Asp-(OtBu)]-Amphomycin, the “purity (crude or final not stated)” value was 68% pure. For C16-Gly-Amphomycin, the “final purity (method not given)” value was 96% pure and the step yield was 35% yield. With C18-Gly-Amphomycin the “final purity (method not given)” value was 84% pure and the step yield was 29% yield. In the case of CH3—(CH2)9—O-p-Ph-C(═O)-Gly-Amphomycin, the “final purity (method not given)” value is reported as 88% pure and the step yield is reported as 28% yield. For CH3—(CH2)9—SO2-Gly-Amphomycin, the “final purity (method not given)” value was 89% pure. In the case of CH3—(CH2)9—SO2-Phe-Amphomycin, the “final purity (method not given)” value is reported as 91% pure and the step yield is reported as 21% yield. With CH3—(CH2)11—NH—C(═O)-Gly-Amphomycin the “purity (crude or final not stated)” value was 93% pure. With CH3—(CH2)11—O-p-Ph-C(═O)-Gly-Amphomycin the “final purity (method not given)” value was 86% pure and the step yield was 30% yield. In the case of CH3—(CH2)13—NH—C(═O)-Gly-Amphomycin, the “purity (crude or final not stated)” value is reported as 70.9% pure and the step yield is reported as 36.6% yield. In the case of CH3—(CH2)15—SO2-Gly-Amphomycin, the “final purity (method not given)” value is reported as 89% pure. In the case of CH3—(CH2)15—SO2-Phe-Amphomycin, the “final purity (method not given)” value is reported as 91% pure and the step yield is reported as 21% yield. For Lys-Gly-Amphomycin-9-C13, the “purity (crude or final not stated)” value was 89% pure and the step yield was 17.8% yield. In the case of Lys-Gly-Amphomycin-9-C15, the “purity (crude or final not stated)” value is reported as 90% pure and the step yield is reported as 17.5% yield. For Ph-O—(CH2)11-Gly-Amphomycin, the “purity (crude or final not stated)” value was 87% pure.
